The values that follow come from patent publication US4760148A, “5-aralkyl substituted 2H-benzotriazoles and stabilized compositions” (Ciba-Geigy Corporation, priority 1985, dated 1988).

The nature of one data set: Retention of original gloss after exposure in the QUV apparatus. Particulars: ultraviolet light and humidity, 876 hours.
With `CCC(C)(C)c1cc(-n2nc3ccccc3n2)c(O)c(C(C)(C)CC)c1` [Compound B, 2(2-hydroxy-3,5-di-tert-amylphenyl)-2H--benzotriazole, reference compound], the “% Retention of Original Gloss” value is given as 73%.

With `CC(C)(c1ccccc1)c1cc(-n2nc3ccccc3n2)c(O)c(C(C)(C)c2ccccc2)c1` [Compound F, 2-[2-hydroxy-3,5-di-(alpha,alpha-dimethylbenzyl)phenyl]-2 H-benzotriazole, reference compound], the “% Retention of Original Gloss” value is listed as 60%.

As to `CC(C)(C)CC(C)(C)c1cc(-n2nc3ccccc3n2)c(O)c(C(C)(C)c2ccccc2)c1` [Compound G, 2-[2-hydroxy-3-(alpha,alpha-dimethylbenzyl)-5-tert-octylphenyl]-2H-benzotriazole, reference compound], the “% Retention of Original Gloss” value is 67%.

Take `CC(C)(C)c1cc(-n2nc3ccc(C(C)(C)c4ccccc4)cc3n2)c(O)c(C(C)(C)C)c1` [Example 7, 5-alpha,alpha-Dimethylbenzyl-2-(2-hydroxy-3,5-di-tert-butylphenyl)-2H-benzotriazole]: the “% Retention of Original Gloss” value is given as 71%.

`CC(c1ccccc1)c1ccc2nn(-c3cc(C(C)(C)c4ccccc4)cc(C(C)(C)c4ccccc4)c3O)nc2c1` (stereo not drawn) [Example 25, 5-alpha-Methylbenzyl-2-[2-hydroxy-3,5-di-(alpha,alpha-dimethylbenzyl)phenyl]-2H-benzotriazole]: the “% Retention of Original Gloss” value amounted to 46%.

For the compound `CC(C)(c1ccccc1)c1cc(-n2nc3ccc(Cc4ccccc4)cc3n2)c(O)c(C(C)(C)c2ccccc2)c1` [Example 26, 5-Benzyl-2-[2-hydroxy-3,5-di-(alpha,alpha-dimethylbenzyl)phenyl]-2H-benzotriazole], the “% Retention of Original Gloss” value was determined as 77%.

A further data set is described as follows: Retention of gloss after outdoor exposure in Florida. Particulars: outdoors in Florida, 12 months; two parts by weight additive; without stabilizer 30.
In the case of `CC(C)(c1ccccc1)c1cc(-n2nc3ccccc3n2)c(O)c(C(C)(C)c2ccccc2)c1` [Compound F, 2-[2-hydroxy-3,5-di-(alpha,alpha-dimethylbenzyl)phenyl]-2 H-benzotriazole, reference compound], the “% Retention of Original Gloss” value came to 79%.

Take `CC(C)(C)CC(C)(C)c1cc(-n2nc3ccc(C(C)(C)c4ccccc4)cc3n2)c(O)c(C(C)(C)c2ccccc2)c1` [Example 22, 5-alpha,alpha-Dimethylbenzyl-2-(2-hydroxy-3-alpha,alpha-dimethylbenzyl-5-tert-octylphenyl)-2H-benzotriazole]: the “% Retention of Original Gloss” value came to 73%.

For `CCC(C)(C)c1cc(-n2nc3ccc(C(C)(C)c4ccccc4)cc3n2)c(O)c(C(C)(C)CC)c1` [Example 23], the “% Retention of Original Gloss” value amounted to 76%.

`CC(C)(C)CC(C)(C)c1cc(-n2nc3ccc(C(C)(C)c4ccccc4)cc3n2)c(O)c(C(C)(C)CC(C)(C)C)c1` [Example 24, 5-alpha,alpha-Dimethylbenzyl-2-(2-hydroxy-3,5-di-tert-octylphenyl)-2H-benzotriazole]: the “% Retention of Original Gloss” value was 82%.
